Test results from article PMC7198521.
Results are given in words; binding and its absence hold for the method and conditions named. A result given as binding can be weak or reduced; the word gives no strength.

The chains behind the UniProt entries cited, without tags or fusion partners. Where a name states a change or a piece, a line headed by the entry shows the natural chain unless it says otherwise.
UniProt Q9U205: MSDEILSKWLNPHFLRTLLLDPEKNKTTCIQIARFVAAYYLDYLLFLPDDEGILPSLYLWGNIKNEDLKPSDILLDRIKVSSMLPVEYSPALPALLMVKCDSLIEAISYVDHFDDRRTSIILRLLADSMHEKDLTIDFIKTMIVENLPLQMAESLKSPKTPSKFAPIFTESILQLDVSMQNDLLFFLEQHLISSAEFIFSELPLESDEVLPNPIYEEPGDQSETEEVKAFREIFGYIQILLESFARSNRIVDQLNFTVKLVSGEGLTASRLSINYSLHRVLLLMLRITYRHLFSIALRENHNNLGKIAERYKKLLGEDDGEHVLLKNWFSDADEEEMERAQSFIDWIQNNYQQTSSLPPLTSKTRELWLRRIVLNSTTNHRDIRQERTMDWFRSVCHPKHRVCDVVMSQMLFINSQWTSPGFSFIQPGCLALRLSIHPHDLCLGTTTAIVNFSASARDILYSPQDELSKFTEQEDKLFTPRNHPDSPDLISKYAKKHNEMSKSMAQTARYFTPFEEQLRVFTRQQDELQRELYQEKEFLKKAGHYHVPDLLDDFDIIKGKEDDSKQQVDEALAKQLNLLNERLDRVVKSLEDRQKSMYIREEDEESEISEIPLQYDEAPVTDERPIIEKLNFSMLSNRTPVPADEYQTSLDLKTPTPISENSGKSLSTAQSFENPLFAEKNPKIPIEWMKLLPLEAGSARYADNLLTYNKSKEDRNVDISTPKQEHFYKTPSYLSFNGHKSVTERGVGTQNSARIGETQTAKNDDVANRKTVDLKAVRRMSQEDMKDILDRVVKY
UniProt Q9XWN2: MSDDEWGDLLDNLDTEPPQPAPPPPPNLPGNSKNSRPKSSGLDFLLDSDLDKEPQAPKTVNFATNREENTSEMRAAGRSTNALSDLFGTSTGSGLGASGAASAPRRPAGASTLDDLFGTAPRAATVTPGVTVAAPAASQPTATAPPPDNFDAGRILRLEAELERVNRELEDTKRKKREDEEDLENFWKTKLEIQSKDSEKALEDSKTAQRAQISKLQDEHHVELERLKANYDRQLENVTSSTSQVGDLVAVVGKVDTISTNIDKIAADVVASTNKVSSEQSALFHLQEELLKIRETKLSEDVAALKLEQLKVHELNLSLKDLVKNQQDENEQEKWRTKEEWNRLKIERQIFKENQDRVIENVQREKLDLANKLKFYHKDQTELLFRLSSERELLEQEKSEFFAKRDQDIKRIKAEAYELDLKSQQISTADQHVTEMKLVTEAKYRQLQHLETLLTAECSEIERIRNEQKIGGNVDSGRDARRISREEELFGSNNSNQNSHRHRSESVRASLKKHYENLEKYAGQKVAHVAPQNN
UniProt O16626: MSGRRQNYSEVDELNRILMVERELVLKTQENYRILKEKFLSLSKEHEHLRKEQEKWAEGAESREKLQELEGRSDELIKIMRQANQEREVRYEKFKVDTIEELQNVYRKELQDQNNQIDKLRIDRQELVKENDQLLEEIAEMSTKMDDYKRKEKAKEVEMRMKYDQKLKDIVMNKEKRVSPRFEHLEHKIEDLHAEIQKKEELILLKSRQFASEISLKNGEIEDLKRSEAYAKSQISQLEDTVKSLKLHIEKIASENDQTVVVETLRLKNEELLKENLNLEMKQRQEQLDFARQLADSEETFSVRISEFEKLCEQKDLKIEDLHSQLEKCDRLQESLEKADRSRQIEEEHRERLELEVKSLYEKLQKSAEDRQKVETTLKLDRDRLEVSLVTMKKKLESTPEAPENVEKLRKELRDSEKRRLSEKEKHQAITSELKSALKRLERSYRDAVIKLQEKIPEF

Assays:
[1] = molecular target: GST-fused full-length TALP-3 (C. elegans) (UniProt Q9U205); assay: pull-down; purified GST fusion protein immobilised on glutathione Sepharose beads, incubated with His fusion protein 4 h at 4 °C; 50 mM Tris-HCl pH 7.4, 150 mM NaCl, 1% Triton X-100, 1 mM dithiothreitol, 10% glycerol; western blot with anti-His antibody; both purified
[2] = molecular target: DYF-19 (recombinant, GST pull-down) (C. elegans) (UniProt Q9XWN2); assay: as above

binding [1] | binding [2] | Substance
binds |  | DYF-19 (recombinant, GST pull-down) (from UniProt Q9XWN2)
binds | binds | His-fused ANKR-26 (from UniProt O16626)
